The list is a part of this screen's results and no random one: it gathers tests that were run many times, whatever their T/C, doses with no T/C, and many T/C values between a quarter and a half above the control. Further doses and runs are listed elsewhere. T/C is the treated group as % of the vehicle group. Some entries give survivors of the animals treated and no T/C: the source files T/C as zero there, which appears to mark a toxic dose or a test without result, not a measured value. Some doses without a T/C left all or most animals alive at the check, yet need not have been tolerated: survival well below the control is almost never listed, so the zero probably covers shortened survival too. Survivors were counted at the toxicity check, usually on the fifth day, unless a day is given; later deaths do not show. Schedules are NCI's codes, taken here to give the interval after Q, in days (D) or hours (H), and the number of doses after X. Some schedule codes hold Z or #, which are not explained here. Some structures stand for samples that the source files as different forms (salt, stereo form or complex); doses refer to the form tested. Some doses were run more than once; their values stand side by side, smallest first. Where survival is the endpoint, this PubChem deposit counts one and a half times the control or more as active, and values a quarter to a half above the control carry no call in these data; other NCI protocols may use other cut-offs. Some T/C values are followed by the survivors on the day toxicity was checked, most often the fifth; where none is given, no animal had died by that day.
Tested on: L1210 leukemia ip in BDF1 mice, survival T/C
Test: NCI In Vivo Anticancer Drug Screen. Data for tumor model L1210 Leukemia (intraperitoneal) in B6D2F1 (BDF1) mice
Settings: T/C endpoint: mean survival time, higher T/C = longer survival
[1] = dose: 400.0 mg/kg/injection, schedule: Q01DX001 (oral), vehicle: water
[2] = dose: 400.0 mg/kg/injection, schedule: Q04DX003 (ip), vehicle: saline with Tween-80

Q: `Cc1c2ccncc2c(C)c2c1[nH]c1ccccc12` was tested. Which T/C (dose: 200.0 mg/kg/injection, schedule: Q04DX003 (oral), vehicle: saline) did it give?
A: 137 % of control

Q: And the survivor count (dose: 200.0 mg/kg/injection, schedule: Q04DX003 (oral), vehicle: water)?
A: 6 of 6

Q: What about the survivor count (dose: 200.0 mg/kg/injection, schedule: Q04DX009 (ip), vehicle: citric acid) of the same molecule?
A: 6 of 10

Q: What about the T/C (dose: 225.0 mg/kg/injection, schedule: Q01DX001 (ip), vehicle: saline) of the same molecule?
A: 141 % of control

Q: What about the survivor count (dose: 225.0 mg/kg/injection, schedule: Q01DX Z (oral), vehicle: saline) of the same molecule?
A: 5 of 6

Q: And the survivor count (dose: 256.0 mg/kg/injection, schedule: Q01DX001 (ip), vehicle: clinical formulation)?
A: 0 of 10

Q: And the T/C (dose: 256.0 mg/kg/injection, schedule: Q01DX001 (sc), vehicle: clinical formulation)?
A: 146 % of control

Q: And the survivor count (dose: 256.0 mg/kg/injection, schedule: Q04DX003 (ip), vehicle: acid diluted with saline)?
A: 2 of 10

Q: And the survivor count (dose: 256.0 mg/kg/injection, schedule: Q04DX003 (ip), vehicle: clinical formulation)?
A: 0 of 10

Q: What about the survivor count (dose: 256.0 mg/kg/injection, schedule: Q04DX003 (oral), vehicle: clinical formulation) of the same molecule?
A: 9 of 10

Q: What about the survivor count (dose: 256.0 mg/kg/injection, schedule: Q08DX002 (ip), vehicle: clinical formulation) of the same molecule?
A: 0 of 10

Q: What about the T/C (dose: 256.0 mg/kg/injection, schedule: Q## X009 (oral), vehicle: carboxymethylcellulose (CMC)) of the same molecule?
A: 132 % of control

Q: And the survivor count (dose: 300.0 mg/kg/injection, schedule: Q01DX001 (ip), vehicle: other)?
A: 0 of 8

Q: What about the T/C (dose: 300.0 mg/kg/injection, schedule: Q01DX001 (ip), vehicle: saline with Tween-80) of the same molecule?
A: 147 % of control

Q: And the T/C (dose: 300.0 mg/kg/injection, schedule: Q01DX001 (oral), vehicle: Klucel (hydroxypropylcellulose) (HPC))?
A: 133 % of control

Q: What about the T/C (dose: 300.0 mg/kg/injection, schedule: Q01DX001 (oral), vehicle: other, evaluated on day 40) of the same molecule?
A: 150 % of control

Q: What about the T/C (dose: 300.0 mg/kg/injection, schedule: Q01DX001 (oral), vehicle: other, evaluated on day 60) of the same molecule?
A: 135, 160, 177 % of control

Q: And the survivor count (dose: 300.0 mg/kg/injection, schedule: Q01DX001 (oral), vehicle: other)?
A: 3 of 10

Q: What about the T/C (dose: 300.0 mg/kg/injection, schedule: Q01DX001 (oral), vehicle: saline) of the same molecule?
A: 126 and 138 % of control

Q: And the T/C (dose: 300.0 mg/kg/injection, schedule: Q04DX003 (ip), vehicle: Klucel (hydroxypropylcellulose) (HPC), evaluated on day 5)?
A: 95 % of control

Q: What about the T/C (dose: 300.0 mg/kg/injection, schedule: Q04DX003 (ip), vehicle: Klucel (hydroxypropylcellulose) (HPC), evaluated on day 30) of the same molecule?
A: 123 % of control

Q: And the T/C (dose: 300.0 mg/kg/injection, schedule: Q04DX003 (ip), vehicle: Klucel (hydroxypropylcellulose) (HPC), evaluated on day 60)?
A: 95, 97, 102 % of control

Q: And the survivor count (dose: 300.0 mg/kg/injection, schedule: Q04DX003 (ip), vehicle: saline)?
A: 10 of 10

Q: What about the survivor count (dose: 300.0 mg/kg/injection, schedule: Q08DX002 (ip), vehicle: other) of the same molecule?
A: 0 of 8

Q: And the survivor count (dose: 300.0 mg/kg/injection, schedule: Q08DX002 (ip), vehicle: steroid suspending solution)?
A: 8 of 8

Q: And the T/C (dose: 320.0 mg/kg/injection, schedule: Q01DX001 (ip), vehicle: acid diluted with saline)?
A: 149 % of control

Q: What about the survivor count (dose: 400.0 mg/kg/injection, schedule: Q01DX001 (oral), vehicle: saline with Tween-80) of the same molecule?
A: 5 of 6 and 6 of 6

Q: What about the T/C [1] of the same molecule?
A: 133 % of control

Q: What about the survivor count [1] of the same molecule?
A: 6 of 6

Q: And the survivor count (dose: 400.0 mg/kg/injection, schedule: Q01DX009 (ip), vehicle: other)?
A: 4 of 6

Q: What about the T/C [2] of the same molecule?
A: 86 [5 of 6 alive], 92, 122 % of control

Q: What about the survivor count [2] of the same molecule?
A: 6 of 6

Q: And the survivor count (dose: 400.0 mg/kg/injection, schedule: Q04DX003 (ip), vehicle: saline)?
A: 6 of 6

Q: What about the survivor count (dose: 400.0 mg/kg/injection, schedule: Q04DX003 (oral), vehicle: water) of the same molecule?
A: 6 of 6

Q: What about the survivor count (dose: 480.0 mg/kg/injection, schedule: Q01DX001 (ip), vehicle: acetone) of the same molecule?
A: 3 of 4

Q: What about the survivor count (dose: 480.0 mg/kg/injection, schedule: Q## X008 (oral), vehicle: other) of the same molecule?
A: 3 of 10

Q: What about the survivor count (dose: 480.0 mg/kg/injection, schedule: Q## X016 (oral), vehicle: other) of the same molecule?
A: 3 of 10

Q: And the survivor count (dose: 600.0 mg/kg/injection, schedule: Q01DX001 (ip), vehicle: other)?
A: 0 of 8

Q: And the survivor count (dose: 600.0 mg/kg/injection, schedule: Q01DX001 (ip), vehicle: saline with Tween-80)?
A: 1 of 10

Q: What about the T/C (dose: 600.0 mg/kg/injection, schedule: Q01DX001 (ip), vehicle: saline) of the same molecule?
A: 147 % of control

Q: What about the survivor count (dose: 600.0 mg/kg/injection, schedule: Q01DX001 (ip), vehicle: steroid suspending solution) of the same molecule?
A: 7 of 8

Q: And the survivor count (dose: 600.0 mg/kg/injection, schedule: Q01DX001 (oral), vehicle: Klucel (hydroxypropylcellulose) (HPC))?
A: 5 of 10

Q: What about the T/C (dose: 600.0 mg/kg/injection, schedule: Q01DX001 (oral), vehicle: other, evaluated on day 40) of the same molecule?
A: 131 % of control [9 of 10 alive]

From PubChem BioAssay AID248 (DTP/NCI, 2004)
